Laboratory results as given in patent US20200123266A1 (Memorial Sloan Kettering, published 2020).
No constants are given. Whether binding was seen depends on the method and setting. Some results given as binding are weak or reduced against the parent protein; the word gives no strength.

By UniProt entry, the sequences of proteins in these tests, tags left out. Where a name states a change or a piece, a line headed by the entry shows the natural chain unless it says otherwise.
UniProt Q02223: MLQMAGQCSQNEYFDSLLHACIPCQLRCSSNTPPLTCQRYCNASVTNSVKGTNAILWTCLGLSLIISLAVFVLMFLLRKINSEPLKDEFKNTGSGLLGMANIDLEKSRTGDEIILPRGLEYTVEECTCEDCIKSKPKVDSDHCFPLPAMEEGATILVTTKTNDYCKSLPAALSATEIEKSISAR

Assays:
[1] = biological target: biotinylated BCMA-Fc protein (human) (UniProt Q02223); test: phage ELISA on coated human BCMA ECD-Fc, HRP anti-M13, TMB
[2] = biological target: human BCMA on 3T3-BCMA cell line (human) (UniProt Q02223); test: FACS on 3T3-BCMA cells, phage, anti-M13 mouse antibody, APC anti-mouse IgG
[3] = biological target: human BCMA on 3T3-BCMA cell line (human) (UniProt Q02223); test: flow cytometry, scFv phage on 3T3-BCMA cells, anti-M13 detection

Measured: binding

B1: ET140-3 scFv phage antibody clone (scFv)
scFv: LPVLTQPPSASGTPGQRVTISCSGRSSNIGSNSVNWYRQLPGAAPKLLIYSNNQRPPGVPVRFSGSKSGTSASLAISGLQSEDEATYYCATWDDNLNVHYVFGTGTKVTVLGSRGGGGSGGGGSGGGGSLEMAQVQLVQSGAEVKKPGSSVKVSCKASGGTFSSYAISWVRQAPGQGLEWMGRIIPILGIANYAQKFQGRVTITADKSTSTAYMELSSLRSEDTAVYYCARGGYYSHDMWSEDWGQGTLVTVSS
binds: [1] | [2] | [3]

B2: ET140-40 scFv phage antibody clone (scFv)
scFv: QSVLTQPPSVSGAPGQRVTISCTGSSSNIGAGFDVHWYQQLPGTAPKLLIYGNSNRPSGVPDRFSGSKSGTSASLAITGLQAEDEADYYCQSYDSSLSGYVFGTGTKVTVLGSRGGGGSGGGGSGGGGSLEMAQVQLVQSGAEVKKPGASVKVSCKASGYTFTDYYMHWVRQAPGQRLEWMGWINPNSGGTNYAQKFQDRITVTRDTSSNTGYMELTRLRSDDTAVYYCARSPYSGVLDKWGQGTLVTVSS
binds: [1] | [2] | [3]

B3: ET140-54 scFv phage antibody clone (scFv)
scFv: QSALTQPASVSASPGQSIAISCTGTSSDVGWYQQHPGKAPKLMIYEDSKRPSGVSNRFSGSKSGNTASLTISGLQAEDEADYYCSSNTRSSTLVFGGGTKLTVLGSRGGGGSGGGGSGGGGSLEMAEVQLVQSGAEMKKPGASLKLSCKASGYTFIDYYVYWMRQAPGQGLESMGWINPNSGGTNYAQKFQGRVTMTRDTSISTAYMELSRLRSDDTAMYYCARSQRDGYMDYWGQGTLVTVSS
binds: [1] | [2] | [3]
